Laboratory results: patent US20180125842A1, “Ergoloid for Cancer” (priority 2016, published 2018)
For at least one compound, name, drawing or mass did not settle the structure.

Test system: prostate cancer
Experiment: Clinical use in prostate cancer
Type: in vivo, human
Conditions: monotherapy or regimen without Ergoloid

COc1cc(/C=C/c2ccc(O)cc2)cc(OC)c1 [pterostilbene]
treatment failure: failed, after years of use
